Earlier results in patent US20180368457A1 (Petiva Private Limited, priority 2015, published 2018).

Conditions: for sweetness, of the sweetness of sucrose: pure sugar relative to sucrose

Compound	sweetness, of the sweetness of sucrose	sweetening power related to sucrose (in 10% solution)
OC[C@H]1O[C@](O)(CO[C@H]2O[C@H](CO)[C@@H](O)[C@H](O)[C@H]2O)[C@@H](O)[C@@H]1O [trehalulose, 1-O-α-D-glucopyranosyl-β-D-fructofuranose]	about 60%	–
OCC1O[C@H](OC[C@H]2O[C@](O)(CO)C(O)C2O)C(O)C(O)[C@@H]1O (stereo partly drawn) [isomaltulose, Isomaltulose]	–	0.18
O=C(CO)[C@H](O)[C@H](O)[C@H](O)CO [allulose, D-Psicose]	70%	–
